# In all, about 330,000 compounds went through this assay and about 20 (0.006%) were called active. Inconclusive results, whose numbers are uncertain, are shown with a selection of clear calls. The call rests on the fitted dose curve; in most records, active means well fitted inhibition curve with a large enough effect; inconclusive means small, poorly fitted or top-dose-only effect, or effect the other way; inactive means flat fitted curve, though single readings scatter. Potencies beside an inconclusive call are fits to weak or partial responses and may not hold up.
# Sequences of proteins named here, by UniProt entry; tags and fusion partners are left off. A change or cut given only in a name is not applied to a line headed by its entry.
# UniProt O00167: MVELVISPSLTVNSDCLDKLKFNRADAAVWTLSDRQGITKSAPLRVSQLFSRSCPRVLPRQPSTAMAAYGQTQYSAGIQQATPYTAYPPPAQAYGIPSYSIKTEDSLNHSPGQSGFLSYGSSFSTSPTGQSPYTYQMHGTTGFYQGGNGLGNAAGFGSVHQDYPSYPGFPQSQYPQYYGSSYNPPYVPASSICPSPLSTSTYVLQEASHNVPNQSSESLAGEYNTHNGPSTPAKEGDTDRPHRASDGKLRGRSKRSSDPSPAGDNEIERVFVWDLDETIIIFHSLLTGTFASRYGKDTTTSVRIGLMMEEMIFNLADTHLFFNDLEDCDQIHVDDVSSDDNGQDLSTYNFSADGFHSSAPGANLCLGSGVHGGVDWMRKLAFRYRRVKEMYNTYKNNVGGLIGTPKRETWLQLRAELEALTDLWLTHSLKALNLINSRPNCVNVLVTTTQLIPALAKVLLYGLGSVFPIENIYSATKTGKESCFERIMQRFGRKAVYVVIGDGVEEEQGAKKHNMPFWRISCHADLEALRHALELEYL
# Target: Protein phosphatase EYA2 (Homo sapiens) (UniProt O00167)
# Assay: qHTS Assay for Inhibitors of the Phosphatase Activity of Eya2
# Conditions: recombinant Eya2, OMFP fluorescence dephosphorylation (OMFP is methylfluorescein phosphate); activity, negative = inhibition: at 76.9 µM (top of the series) unless noted
# Summary of the method: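 Eya2 (0.2 uM) preincubated 10 min at ambient with compound, then OMFP substrate added at 50 uM; 10 min reaction in 50 mM HEPES pH 7.5, 50 mM NaCl, 5 uM MgCl2, 0.05% BSA, 1 mM DTT. Fluorescence read at Ex 485/Em 525 nm.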
# On the % scale 0 is the no-effect control and ±100 the full control effect; potency means the concentration at half of the fitted maximal effect.
Compound,Potency,"activity, negative = inhibition"
CC1C/C(=C/c2ccccn2)C(=O)/C(=C/c2ccccn2)C1 (centres undefined),inactive,
CCOC(=O)C1(C)NC(c2ccccc2F)C2C(=O)N(CC)C(=O)C21 (centres undefined),"inconclusive: 25.1 µM [inhibitor, single point]",
Nc1nn(-c2ccccc2)c(N)c1N=Nc1ccccc1,inactive,
CC(=O)Nc1nnc(COc2ccccc2)s1,"inconclusive: 100 µM [inhibitor, single point]",
COc1ccc(NS(=O)(=O)c2cccc(C(=O)NNC(=O)c3ccc(Br)o3)c2)cc1,"inconclusive: 15.8 µM [inhibitor, single point]",
CC(=O)Nc1ccc(S(=O)(=O)NCc2ccc3[nH]c(C)cc3c2)cc1,"inconclusive: 10 µM [inhibitor, partial curve, poor fit]",
CCCc1nc2c(c(=O)c3ccccc3n2C)c(=O)n1-c1cc(C)cc(C)c1,"inconclusive: 100 µM [inhibitor, single point]",
O=C(NC(=S)NCc1ccccc1)c1ccc2c(c1)OCO2,inactive,
O=C(N/N=C/c1ccccc1F)c1ccccc1OCc1ccccc1,"inconclusive: 22.4 µM [inhibitor, single point]",
Cc1c(CC(=O)O)c(=O)oc2c(C)c3occ(-c4ccc(F)cc4)c3cc12,"inconclusive: 31.6 µM [inhibitor, partial curve, poor fit]",
Cc1cc(C)c(C(N)=O)c(SCC(=O)c2ccc(Cl)cc2)n1,inactive,
COc1ccc2nc(NC(C)=O)sc2c1,inactive,
COc1ccc(/C=C/C(=O)NC(=S)Nc2ccc(Br)cn2)cc1,"inconclusive: 89.1 µM [inhibitor, single point]",
O=C1NC2=C(C(=O)CCC2)C(c2ccc3ncccc3c2)N1 (centres undefined),inactive,
Cc1noc(C)c1C(=O)NC1=NCCS1,"inconclusive: 200 µM [inhibitor, partial curve, poor fit]",
Nc1nc(-c2ccco2)nn1S(=O)(=O)c1ccccc1,inactive,
COc1cc(NC(C)=O)c2ncccc2c1NC(C)=O,"inconclusive: 39.8 µM [inhibitor, partial curve, poor fit]",
CCOc1ccc2nc(/N=C/c3nc(-c4ccc(Br)cc4)oc3O)sc2c1,inactive,
CC(C)(C)c1cc(C(=O)NNc2cccc(Cl)c2)n(Cc2ccccc2)n1,"inconclusive: 112 µM [inhibitor, single point]",
COc1cccc(NC(=O)N2CCN(c3cccc(C)c3)C(C)C2)c1 (centres undefined),inactive,
N/C(Cc1cccs1)=N\OC(=O)COc1ccc(Br)cc1Cl,"inconclusive: 22.4 µM [inhibitor, single point]",
O=C(Nc1ccc2c(c1)CCC2)c1cc(=O)[nH]c2ccccc12,"inconclusive: 56.2 µM [inhibitor, partial curve, poor fit]",
CCn1c(=S)[nH]c2cc(C(=O)O)ccc21,,inconclusive: -31% [inhibitor]
O=C(CCl)Nc1cn(-c2ccccc2)nc1-c1ccccc1,inactive,
CCn1c(-c2cccn(Cc3ccccc3)c2=O)n[nH]c1=S,"inconclusive: 112 µM [inhibitor, single point]",

Compound,Potency,"activity, negative = inhibition"
[O-]c1n[n+](-c2ccc(Cl)cc2Cl)cc2ccccc12,"inconclusive: 22.4 µM [inhibitor, single point]",
CN(C)c1ccc(/C=C(\C#N)c2ccccc2)cc1,"inconclusive: 100 µM [inhibitor, single point]",
COc1ccc(C2OC(=O)C(C)(C)C(=O)C2(C)C)cc1OC (centres undefined),"inconclusive: 100 µM [inhibitor, single point]",
COc1ccc(C(CNC(=O)Cc2ccccc2)N2CCCCC2)cc1 (centres undefined),"inconclusive: 28.2 µM [inhibitor, single point]",
Cc1cc(-c2n[nH]c(=S)n2/N=C/C=C/c2ccccc2)n[nH]1,inactive,
CC(C)(CNC(=O)c1ccc(S(=O)(=O)Nc2ccccc2F)cc1)N1CCOCC1,"inconclusive: 70.8 µM [inhibitor, partial curve]",
CCOC(=O)/C(C#N)=C/C1=C(N2CCOCC2)C(C)(C)OCC1,"inconclusive: 100 µM [inhibitor, partial curve, poor fit]",
CCOc1ccccc1NC(=O)c1nnn(CC(=O)Nc2cc(C)cc(C)c2)c1N,"inconclusive: 100 µM [inhibitor, single point]",
O=C(c1ccncc1)c1ccc(NC(=O)c2cccs2)cc1,inactive,
COc1ccc(N2CCN(C(=O)CCCNC(=O)Cn3cnc4sc(C)c(C)c4c3=O)CC2)cc1,inactive,
O=C1/C(=C/c2ccccc2)NC(=S)N1C(c1ccccc1)c1ccccc1,"inconclusive: 70.8 µM [inhibitor, single point]",
COc1ccc(NC(=O)Cc2c(C(=O)O)n(C)c3ccccc23)cc1OC,"inconclusive: 126 µM [inhibitor, single point]",
COc1ccc(C2Nc3ccccc3C(=O)N2c2ccc(C)cc2)cc1Cn1nnc2ccccc21 (centres undefined),inactive,
Cc1cc(C(=O)CSc2ccccc2)cc(C)c1O,"inconclusive: 100 µM [inhibitor, partial curve]",
O=c1cc(CN2CCN(Cc3ccccc3)CC2)c2ccc(O)c(O)c2o1,"inconclusive: 25.1 µM [inhibitor, single point]",
COc1ccc(C2(O)CN(c3ccccc3)C3=[N+]2CCS3)cc1OC (centres undefined),inactive,
CCOC(=O)Nc1csnn1,"inconclusive: 158 µM [inhibitor, single point]",
c1ccc(N/N=C(\Cc2nc3ccccc3[nH]2)c2ccccc2)cc1,inactive,
Cc1cc(C)nc(SCCCNCc2ccc(Br)cc2)n1,inactive,
COc1ccc(-c2noc(=O)n2Cc2ccccc2F)cc1,inactive,
CCCOc1ccc(N2C(=O)CC(N(Cc3ccc(OC)cc3)C(=S)Nc3ccccc3)C2=O)cc1 (centres undefined),inactive,
Cc1cc(=O)c2cc(C(=O)c3ccccc3)ccc2[nH]1,"inconclusive: 100 µM [inhibitor, single point]",
CCOC(=O)c1cc(CC)sc1NC(=O)c1cc(OCC)c(OCC)c(OCC)c1,inactive,
O=C1OCC(c2ccccc2)=C1c1ccc(S(=O)(=O)N2CCOCC2)s1,"inconclusive: 100 µM [inhibitor, single point]",

# 3 entries from above, tab-delimited:
Compound	Potency	activity, negative = inhibition
COc1ccc(C(CNC(=O)Cc2ccccc2)N2CCCCC2)cc1 (centres undefined)	inconclusive: 28.2 µM [inhibitor, single point]	
CC(C)(CNC(=O)c1ccc(S(=O)(=O)Nc2ccccc2F)cc1)N1CCOCC1	inconclusive: 70.8 µM [inhibitor, partial curve]	
COc1ccc(N2CCN(C(=O)CCCNC(=O)Cn3cnc4sc(C)c(C)c4c3=O)CC2)cc1	inactive	

# Source: PubChem BioAssay AID488837 (National Center for Advancing Translational Sciences (NCATS), 2010)
